# Test results reported in the supplement of paper PMC8728848.
# Some of the results follow.
# Columns and labels:
# Test in all cases: glycan array binding signal (z-score within array); higher = stronger binding
# Conditions in all cases: glycan notation: IUPAC condensed, linker removed
# [1] = molecular target: Neu5Ac(a2-3)Gal(b1-3)GalNAc(b1-4)[Neu5Ac(a2-3)]Gal(b1-4)Glc
# Procedure, shortened: (§1)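 Columns mapping to the same glycan were averaged after glycan names were converted to IUPAC-condensed notation. The data come from 3228 arrays in the Consortium for Functional Glycomics database, limited to those with an available protein sequence. Binding is reported as a within-array Z-score averaged across arrays of one protein sequence and across linkers.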
# [2] = molecular target: Neu5Ac(a2-3)Gal(b1-3)GalNAc6S
# Procedure, shortened: as §1
# [3] = molecular target: Neu5Ac(a2-3)Gal(b1-3)GlcNAc
# Procedure, shortened: as §1
# [4] = molecular target: Neu5Ac(a2-3)Gal(b1-3)GlcNAc(b1-3)Gal(b1-3)GlcNAc
# Procedure, shortened: as §1
# [5] = molecular target: Neu5Ac(a2-3)Gal(b1-3)GlcNAc(b1-3)Gal(b1-4)GlcNAc
# Procedure, shortened: as §1
# [6] = molecular target: Neu5Ac(a2-3)Gal(b1-3)GlcNAc6S
# Procedure, shortened: as §1
# [7] = molecular target: Neu5Ac(a2-3)Gal(b1-3)[Fuc(a1-4)]GlcNAc
# Procedure, shortened: as §1
# [8] = molecular target: Neu5Ac(a2-3)Gal(b1-3)[Fuc(a1-4)]GlcNAc(b1-3)Gal(b1-4)[Fuc(a1-3)]GlcNAc
# Procedure, shortened: as §1
# [9] = molecular target: Neu5Ac(a2-3)Gal(b1-3)[Neu5Ac(a2-3)Gal(b1-4)]GlcNAc
# Procedure, shortened: as §1
# [10] = molecular target: Neu5Ac(a2-3)Gal(b1-3)[Neu5Ac(a2-6)]GalNAc
# Procedure, shortened: as §1
# Neu5Ac(a2-3)Gal(b1-4)Glc = molecular target: Neu5Ac(a2-3)Gal(b1-4)Glc
# Procedure, shortened: as §1
# [11] = molecular target: Neu5Ac(a2-3)Gal(b1-4)GlcNAc
# Procedure, shortened: as §1
# [12] = molecular target: Neu5Ac(a2-3)Gal(b1-4)GlcNAc(b1-2)Man(a1-3)[Neu5Ac(a2-3)Gal(b1-4)GlcNAc(b1-2)Man(a1-6)]Man(b1-4)GlcNAc(b1-4)GlcNAc
# Procedure, shortened: as §1
# [13] = molecular target: Neu5Ac(a2-3)Gal(b1-4)GlcNAc(b1-3)Gal(b1-3)GlcNAc
# Procedure, shortened: as §1
# [14] = molecular target: Neu5Ac(a2-3)Gal(b1-4)GlcNAc(b1-3)Gal(b1-4)GlcNAc
# Procedure, shortened: as §1
# [15] = molecular target: Neu5Ac(a2-3)Gal(b1-4)GlcNAc(b1-3)Gal(b1-4)GlcNAc(b1-3)Gal(b1-4)GlcNAc
# Procedure, shortened: as §1
# [16] = molecular target: Neu5Ac(a2-3)Gal(b1-4)GlcNAc(b1-3)Gal(b1-4)[Fuc(a1-3)]GlcNAc
# Procedure, shortened: as §1
# [17] = molecular target: Neu5Ac(a2-3)Gal(b1-4)GlcNAc(b1-6)[Gal(b1-3)]GalNAc
# Procedure, shortened: as §1
# [18] = molecular target: Neu5Ac(a2-3)Gal(b1-4)GlcNAc6S
# Procedure, shortened: as §1
# [19] = molecular target: Neu5Ac(a2-3)Gal(b1-4)[Fuc(a1-3)]GlcNAc
# Procedure, shortened: as §1
# [20] = molecular target: Neu5Ac(a2-3)Gal(b1-4)[Fuc(a1-3)]GlcNAc(b1-3)Gal
# Procedure, shortened: as §1
# [21] = molecular target: Neu5Ac(a2-3)Gal(b1-4)[Fuc(a1-3)]GlcNAc(b1-3)Gal(b1-4)GlcNAc
# Procedure, shortened: as §1
# [22] = molecular target: Neu5Ac(a2-3)Gal(b1-4)[Fuc(a1-3)]GlcNAc(b1-3)Gal(b1-4)[Fuc(a1-3)]GlcNAc(b1-3)Gal(b1-4)[Fuc(a1-3)]GlcNAc
# Procedure, shortened: as §1
# [23] = molecular target: Neu5Ac(a2-3)Gal(b1-4)[Fuc(a1-3)]GlcNAc6S
# Procedure, shortened: as §1
# [24] = molecular target: Neu5Ac(a2-3)Gal6S(b1-4)GlcNAc
# Procedure, shortened: as §1
# [25] = molecular target: Neu5Ac(a2-3)Gal6S(b1-4)[Fuc(a1-3)]GlcNAc
# Procedure, shortened: as §1
# Neu5Ac(a2-3)GalNAc = molecular target: Neu5Ac(a2-3)GalNAc
# Procedure, shortened: as §1
# [26] = molecular target: Neu5Ac(a2-3)GalNAc(b1-4)GlcNAc
# Procedure, shortened: as §1
# [27] = molecular target: Neu5Ac(a2-3)[GalNAc(b1-4)]Gal(b1-4)Glc
# Procedure, shortened: as §1
# [28] = molecular target: Neu5Ac(a2-3)[GalNAc(b1-4)]Gal(b1-4)GlcNAc
# Procedure, shortened: as §1
# [29] = molecular target: Neu5Ac(a2-3)[Neu5Ac(a2-6)]GalNAc
# Procedure, shortened: as §1
# Neu5Ac(a2-6)Gal = molecular target: Neu5Ac(a2-6)Gal
# Procedure, shortened: as §1
# Neu5Ac(a2-6)Gal(b1-4)Glc = molecular target: Neu5Ac(a2-6)Gal(b1-4)Glc
# Procedure, shortened: as §1
# [30] = molecular target: Neu5Ac(a2-6)Gal(b1-4)GlcNAc
# Procedure, shortened: as §1
# [31] = molecular target: Neu5Ac(a2-6)Gal(b1-4)GlcNAc(b1-2)Man(a1-3)[Neu5Ac(a2-6)Gal(b1-4)GlcNAc(b1-2)Man(a1-6)]Man(b1-4)GlcNAc(b1-4)GlcNAc
# Procedure, shortened: as §1
# [32] = molecular target: Neu5Ac(a2-6)Gal(b1-4)GlcNAc(b1-3)Gal(b1-4)GlcNAc
# Procedure, shortened: as §1
# [33] = molecular target: Neu5Ac(a2-6)Gal(b1-4)GlcNAc(b1-3)Gal(b1-4)[Fuc(a1-3)]GlcNAc(b1-3)Gal(b1-4)[Fuc(a1-3)]GlcNAc
# Procedure, shortened: as §1
# [34] = molecular target: Neu5Ac(a2-6)Gal(b1-4)GlcNAc6S
# Procedure, shortened: as §1
# Neu5Ac(a2-6)GalNAc = molecular target: Neu5Ac(a2-6)GalNAc
# Procedure, shortened: as §1
# [35] = molecular target: Neu5Ac(a2-6)GalNAc(b1-4)GlcNAc
# Procedure, shortened: as §1
# Neu5Ac(a2-8)Neu5Ac = molecular target: Neu5Ac(a2-8)Neu5Ac
# Procedure, shortened: as §1
# [36] = molecular target: Neu5Ac(a2-8)Neu5Ac(a2-3)Gal(b1-4)Glc
# Procedure, shortened: as §1
# [37] = molecular target: Neu5Ac(a2-8)Neu5Ac(a2-3)[GalNAc(b1-4)]Gal(b1-4)Glc
# Procedure, shortened: as §1
# [38] = molecular target: Neu5Ac(a2-8)Neu5Ac(a2-8)Neu5Ac
# Procedure, shortened: as §1
# [39] = molecular target: Neu5Ac(a2-8)Neu5Ac(a2-8)Neu5Ac(a2-3)Gal(b1-4)Glc
# Procedure, shortened: as §1
# [40] = molecular target: Neu5Ac(a2-8)Neu5Ac(a2-8)Neu5Ac(a2-3)[GalNAc(b1-4)]Gal(b1-4)Glc
# Procedure, shortened: as §1
# [41] = molecular target: Neu5Ac(a2-8)Neu5Ac(a2-8)Neu5Ac(a2-8)Neu5Ac(a2-3)[GalNAc(b1-4)]Gal(b1-4)Glc
# Procedure, shortened: as §1
# Neu5Ac(b1-6)GalNAc = molecular target: Neu5Ac(b1-6)GalNAc
# Procedure, shortened: as §1
# [42] = molecular target: Neu5Ac(b2-6)Gal(b1-4)GlcNAc
# Procedure, shortened: as §1
# [43] = molecular target: Neu5Ac9Ac(a2-6)Gal(b1-4)GlcNAc
# Procedure, shortened: as §1
# [44] = molecular target: Neu5Gc(a2-3)Gal(b1-3)GlcNAc
# Procedure, shortened: as §1
# [45] = molecular target: Neu5Gc(a2-3)Gal(b1-3)[Fuc(a1-4)]GlcNAc
# Procedure, shortened: as §1
# Neu5Gc(a2-3)Gal(b1-4)Glc = molecular target: Neu5Gc(a2-3)Gal(b1-4)Glc
# Procedure, shortened: as §1
# [46] = molecular target: Neu5Gc(a2-3)Gal(b1-4)GlcNAc
# Procedure, shortened: as §1
# [47] = molecular target: Neu5Gc(a2-3)Gal(b1-4)[Fuc(a1-3)]GlcNAc
# Procedure, shortened: as §1
# [48] = molecular target: Neu5Gc(a2-3)Gal(b1-4)[Fuc(a1-4)]GlcNAc
# Procedure, shortened: as §1
# [49] = molecular target: Neu5Gc(a2-6)Gal(b1-4)GlcNAc
# Procedure, shortened: as §1
# Neu5Gc(a2-6)GalNAc = molecular target: Neu5Gc(a2-6)GalNAc
# Procedure, shortened: as §1
binder,measurement,setting,value
"S100A12 (Homo sapiens), P80511 (protein) MTKLEEHLEGIVNIFHQYSVRKGHFDTLSKGELKQLLTKELANTIKNIKDKAVIDEIFQGLDANQDEQVDFQEFISLVAIALKAAHYHTHKE",glycan array binding signal (z-score),[1],-0.635
same,glycan array binding signal (z-score),[2],0.727
same,glycan array binding signal (z-score),[3],-0.277
same,glycan array binding signal (z-score),[4],-0.286
same,glycan array binding signal (z-score),[5],-0.505
same,glycan array binding signal (z-score),[6],1.18
same,glycan array binding signal (z-score),[7],-0.182
same,glycan array binding signal (z-score),[8],0.446
same,glycan array binding signal (z-score),[9],-0.498
same,glycan array binding signal (z-score),[10],0.07
same,glycan array binding signal (z-score),Neu5Ac(a2-3)Gal(b1-4)Glc,0.342
same,glycan array binding signal (z-score),[11],-0.596
same,glycan array binding signal (z-score),[12],-1.1
same,glycan array binding signal (z-score),[13],-0.66
same,glycan array binding signal (z-score),[14],0.229
same,glycan array binding signal (z-score),[15],-1.23
same,glycan array binding signal (z-score),[16],0.695
same,glycan array binding signal (z-score),[17],-0.487
same,glycan array binding signal (z-score),[18],0.426
same,glycan array binding signal (z-score),[19],-0.296
same,glycan array binding signal (z-score),[20],-0.943
same,glycan array binding signal (z-score),[21],0.858
same,glycan array binding signal (z-score),[22],-0.324
same,glycan array binding signal (z-score),[23],0.678
same,glycan array binding signal (z-score),[24],0.433
same,glycan array binding signal (z-score),[25],0.736
same,glycan array binding signal (z-score),Neu5Ac(a2-3)GalNAc,-0.554
same,glycan array binding signal (z-score),[26],-0.355
same,glycan array binding signal (z-score),[27],-0.308
same,glycan array binding signal (z-score),[28],-0.368
same,glycan array binding signal (z-score),[29],0.727
same,glycan array binding signal (z-score),Neu5Ac(a2-6)Gal,-0.013
same,glycan array binding signal (z-score),Neu5Ac(a2-6)Gal(b1-4)Glc,0.235
same,glycan array binding signal (z-score),[30],-0.54
same,glycan array binding signal (z-score),[31],-0.666
same,glycan array binding signal (z-score),[32],-0.755
same,glycan array binding signal (z-score),[33],-0.428
same,glycan array binding signal (z-score),[34],0.573
same,glycan array binding signal (z-score),Neu5Ac(a2-6)GalNAc,-0.018
same,glycan array binding signal (z-score),[35],-0.591
same,glycan array binding signal (z-score),Neu5Ac(a2-8)Neu5Ac,0.347
same,glycan array binding signal (z-score),[36],-0.017
same,glycan array binding signal (z-score),[37],-0.275
same,glycan array binding signal (z-score),[38],-0.32
same,glycan array binding signal (z-score),[39],-0.649
same,glycan array binding signal (z-score),[40],0.182
same,glycan array binding signal (z-score),[41],-0.565
same,glycan array binding signal (z-score),Neu5Ac(b1-6)GalNAc,0.657
same,glycan array binding signal (z-score),[42],0.477
same,glycan array binding signal (z-score),[43],-0.213
same,glycan array binding signal (z-score),[44],0.154
same,glycan array binding signal (z-score),[45],-0.442
same,glycan array binding signal (z-score),Neu5Gc(a2-3)Gal(b1-4)Glc,-0.091
same,glycan array binding signal (z-score),[46],-0.597
same,glycan array binding signal (z-score),[47],-0.199
same,glycan array binding signal (z-score),[48],-0.012
same,glycan array binding signal (z-score),[49],-0.183
same,glycan array binding signal (z-score),Neu5Gc(a2-6)GalNAc,-0.009

# Not a retest: entries from further up.
binder,measurement,setting,value
"S100A12 (Homo sapiens), P80511 (protein) MTKLEEHLEGIVNIFHQYSVRKGHFDTLSKGELKQLLTKELANTIKNIKDKAVIDEIFQGLDANQDEQVDFQEFISLVAIALKAAHYHTHKE",glycan array binding signal (z-score),[6],1.18
same,glycan array binding signal (z-score),[7],-0.182
same,glycan array binding signal (z-score),[8],0.446
